Several values for one entry are separate records, joined by “and”; a condition that tells them apart may be missing. Equal entries are not always repeated. Where two headings read alike, the source gives them in different places. This continues a long series; more values of the same kind are listed elsewhere.
Test system: ATCC strain 43300 Staphylococcus aureus
Details: for survival (cfu/ml): triplicate platings
[1] = 30 μg/ml oxacillin + MSM (% in label), 96 hours, listed as 12% MSM
[2] = 30 μg/ml oxacillin + MSM (% in label), 96 hours, listed as 13% MSM
[3] = 30 μg/ml oxacillin + MSM (% in label), 96 hours, listed as 14% MSM
[4] = 30 μg/ml oxacillin + MSM (% in label), 96 hours, listed as 15% MSM
[5] = 30 μg/ml oxacillin + MSM (% in label), 120 hours, listed as 5% MSM
[6] = 30 μg/ml oxacillin + MSM (% in label), 120 hours, listed as 6% MSM
[7] = 30 μg/ml oxacillin + MSM (% in label), 120 hours, listed as 7% MSM
[8] = 30 μg/ml oxacillin + MSM (% in label), 120 hours, listed as 8% MSM
[9] = 30 μg/ml oxacillin + MSM (% in label), 120 hours, listed as 9% MSM
[10] = 30 μg/ml oxacillin + MSM (% in label), 120 hours, listed as 10% MSM
[11] = 30 μg/ml oxacillin + MSM (% in label), 120 hours, listed as 11% MSM
[12] = 30 μg/ml oxacillin + MSM (% in label), 120 hours, listed as 12% MSM
[13] = 30 μg/ml oxacillin + MSM (% in label), 120 hours, listed as 13% MSM
[14] = 30 μg/ml oxacillin + MSM (% in label), 120 hours, listed as 14% MSM
[15] = 30 μg/ml oxacillin + MSM (% in label), 120 hours, listed as 15% MSM
[16] = 30 μg/ml oxacillin + MSM (% in label), 120 hours, listed as 16% MSM

With CS(C)(=O)=O [MSM, Methylsulfonylmethane] the “survival, Average Log” value [1] was 3.7 Log, the “survival, Average Log” value [2] was 2.5 Log and the “survival, Average Log” value [3] was 1.7 Log. For the same compound, the “survival, Average Log” value [4] was 1.9 Log, the “survival, Average Log” value (30 μg/ml oxacillin + MSM (% in label), 96 hours, listed as 16% MSM) was 1.3 Log and the “survival (cfu/ml)” value (30 μg/ml oxacillin + MSM (% in label), 96 hours, listed as 5% MSM) was >3.3 × 10^5 cfu/ml. The “survival (cfu/ml)” value (30 μg/ml oxacillin + MSM (% in label), 96 hours, listed as 6% MSM) was >3.3 × 10^5 cfu/ml, the “survival (cfu/ml)” value (30 μg/ml oxacillin + MSM (% in label), 96 hours, listed as 7% MSM) was >3.3 × 10^5 cfu/ml and the “survival (cfu/ml)” value (30 μg/ml oxacillin + MSM (% in label), 96 hours, listed as 8% MSM) was >3.3 × 10^5 cfu/ml. The “survival (cfu/ml)” value (30 μg/ml oxacillin + MSM (% in label), 96 hours, listed as 9% MSM) was 1.0 × 10^4 cfu/ml and 1.02 × 10^4 cfu/ml and 1.01 × 10^4 cfu/ml, the “survival (cfu/ml)” value (30 μg/ml oxacillin + MSM (% in label), 96 hours, listed as 10% MSM) was >3.3 × 10^5 cfu/ml and the “survival (cfu/ml)” value (30 μg/ml oxacillin + MSM (% in label), 96 hours, listed as 11% MSM) was >3.3 × 10^5 cfu/ml. The “survival (cfu/ml)” value [1] was 6.9 × 10^3 cfu/ml and 3.9 × 10^3 cfu/ml, the “survival (cfu/ml)” value [2] was 3.3 × 10^2 cfu/ml and 3.1 × 10^2 cfu/ml and 3.2 × 10^2 cfu/ml and the “survival (cfu/ml)” value [3] was 5.0 × 10^1 cfu/ml and 6.0 × 10^1 cfu/ml. For the same compound, the “survival (cfu/ml)” value [4] was 8.0 × 10^1 cfu/ml, the “survival, Average Log” value [5] was 5.5 Log and the “survival, Average Log” value [6] was 5.5 Log. For the same compound, the “survival, Average Log” value [7] was 5.5 Log, the “survival, Average Log” value [8] was 5.5 Log and the “survival, Average Log” value [9] was 5.5 Log. For the same compound, the “survival, Average Log” value [10] was 5.5 Log, the “survival, Average Log” value [11] was 5.5 Log and the “survival, Average Log” value [12] was 4.7 Log. For the same compound, the “survival, Average Log” value [13] was 3.0 Log, the “survival, Average Log” value [14] was 1.3 Log and the “survival, Average Log” value [15] was 0 Log. For the same compound, the “survival, Average Log” value [16] was 1.3 Log, the “survival (cfu/ml)” value [5] was >3.3 × 10^5 cfu/ml and the “survival (cfu/ml)” value [6] was >3.3 × 10^5 cfu/ml. The “survival (cfu/ml)” value [7] was >3.3 × 10^5 cfu/ml, the “survival (cfu/ml)” value [8] was >3.3 × 10^5 cfu/ml and the “survival (cfu/ml)” value [9] was >3.3 × 10^5 cfu/ml. For the same compound, the “survival (cfu/ml)” value [10] was >3.3 × 10^5 cfu/ml, the “survival (cfu/ml)” value [11] was >3.3 × 10^5 cfu/ml and the “survival (cfu/ml)” value [12] was 6.8 × 10^4 cfu/ml and 3.9 × 10^4 cfu/ml and 6.9 × 10^4 cfu/ml. The “survival (cfu/ml)” value [13] was 1.02 × 10^3 cfu/ml and 1.01 × 10^3 cfu/ml, the “survival (cfu/ml)” value [14] was 3.0 × 10^1 cfu/ml and 2.0 × 10^1 cfu/ml and the “survival (cfu/ml)” value [15] was 0 cfu/ml. The “survival (cfu/ml)” value [16] was 2.0 × 10^1 cfu/ml and 3.0 × 10^1 cfu/ml, the “survival (cfu/ml)” value (60 μg/ml oxacillin + MSM (% in label), 24 hours, listed as 5% MSM) was 3.5 × 10^2 cfu/ml and 3.3 × 10^2 cfu/ml and 3.6 × 10^2 cfu/ml and the “survival (cfu/ml)” value (60 μg/ml oxacillin + MSM (% in label), 24 hours, listed as 6% MSM) was 2.4 × 10^2 cfu/ml. For the same compound, the “survival (cfu/ml)” value (60 μg/ml oxacillin + MSM (% in label), 24 hours, listed as 7% MSM) was 2.1 × 10^2 cfu/ml and 2.3 × 10^2 cfu/ml, the “survival (cfu/ml)” value (60 μg/ml oxacillin + MSM (% in label), 24 hours, listed as 8% MSM) was 4.6 × 10^2 cfu/ml and 5.0 × 10^2 cfu/ml and the “survival (cfu/ml)” value (60 μg/ml oxacillin + MSM (% in label), 24 hours, listed as 9% MSM) was 3.2 × 10^2 cfu/ml. The “survival (cfu/ml)” value (60 μg/ml oxacillin + MSM (% in label), 24 hours, listed as 10% MSM) was 4.2 × 10^2 cfu/ml and 4.4 × 10^2 cfu/ml, the “survival (cfu/ml)” value (60 μg/ml oxacillin + MSM (% in label), 24 hours, listed as 11% MSM) was 6.7 × 10^2 cfu/ml and 6.9 × 10^2 cfu/ml and the “survival (cfu/ml)” value (60 μg/ml oxacillin + MSM (% in label), 24 hours, listed as 12% MSM) was 7.3 × 10^2 cfu/ml and 7.1 × 10^2 cfu/ml and 7.5 × 10^2 cfu/ml. For the same compound, the “survival (cfu/ml)” value (60 μg/ml oxacillin + MSM (% in label), 24 hours, listed as 13% MSM) was 6.3 × 10^2 cfu/ml and 6.0 × 10^2 cfu/ml, the “survival (cfu/ml)” value (60 μg/ml oxacillin + MSM (% in label), 24 hours, listed as 14% MSM) was 1.8 × 10^2 cfu/ml and 1.7 × 10^2 cfu/ml and the “survival (cfu/ml)” value (60 μg/ml oxacillin + MSM (% in label), 24 hours, listed as 15% MSM) was 6.6 × 10^3 cfu/ml and 6.2 × 10^3 cfu/ml and 6.4 × 10^3 cfu/ml. The “survival (cfu/ml)” value (60 μg/ml oxacillin + MSM (% in label), 24 hours, listed as 16% MSM) was 6.9 × 10^3 cfu/ml, the “survival (cfu/ml)” value (60 μg/ml oxacillin + MSM (% in label), 48 hours, listed as 5% MSM) was 3.0 × 10^3 cfu/ml and 2.7 × 10^3 cfu/ml and 3.3 × 10^3 cfu/ml and the “survival (cfu/ml)” value (60 μg/ml oxacillin + MSM (% in label), 48 hours, listed as 6% MSM) was 6.0 × 10^1 cfu/ml and 5.0 × 10^1 cfu/ml. The “survival (cfu/ml)” value (60 μg/ml oxacillin + MSM (% in label), 48 hours, listed as 7% MSM) was 1.0 × 10^4 cfu/ml and 1.1 × 10^4 cfu/ml, the “survival (cfu/ml)” value (60 μg/ml oxacillin + MSM (% in label), 48 hours, listed as 8% MSM) was 7.5 × 10^2 cfu/ml and 7.3 × 10^2 cfu/ml and 7.0 × 10^2 cfu/ml and the “survival (cfu/ml)” value (60 μg/ml oxacillin + MSM (% in label), 48 hours, listed as 9% MSM) was 1.8 × 10^2 cfu/ml and 1.7 × 10^2 cfu/ml and 1.5 × 10^2 cfu/ml. The “survival (cfu/ml)” value (60 μg/ml oxacillin + MSM (% in label), 48 hours, listed as 10% MSM) was 1.6 × 10^2 cfu/ml and 1.4 × 10^2 cfu/ml, the “survival (cfu/ml)” value (60 μg/ml oxacillin + MSM (% in label), 48 hours, listed as 11% MSM) was 1.3 × 10^2 cfu/ml and 1.7 × 10^2 cfu/ml and 1.2 × 10^2 cfu/ml and the “survival (cfu/ml)” value (60 μg/ml oxacillin + MSM (% in label), 48 hours, listed as 12% MSM) was 1.1 × 10^2 cfu/ml and 1.0 × 10^2 cfu/ml. For the same compound, the “survival (cfu/ml)” value (60 μg/ml oxacillin + MSM (% in label), 48 hours, listed as 13% MSM) was 6.0 × 10^1 cfu/ml and 4.0 × 10^1 cfu/ml and 5.0 × 10^1 cfu/ml, the “survival (cfu/ml)” value (60 μg/ml oxacillin + MSM (% in label), 48 hours, listed as 14% MSM) was 1.5 × 10^2 cfu/ml and 1.7 × 10^2 cfu/ml and 1.2 × 10^2 cfu/ml and the “survival (cfu/ml)” value (60 μg/ml oxacillin + MSM (% in label), 48 hours, listed as 15% MSM) was 1.2 × 10^2 cfu/ml and 1.3 × 10^2 cfu/ml.
